Data from PMC6117352.

By UniProt entry, the sequences of proteins in these tests, tags left out. Residues count along the entry.
UniProt P03372, 181-552: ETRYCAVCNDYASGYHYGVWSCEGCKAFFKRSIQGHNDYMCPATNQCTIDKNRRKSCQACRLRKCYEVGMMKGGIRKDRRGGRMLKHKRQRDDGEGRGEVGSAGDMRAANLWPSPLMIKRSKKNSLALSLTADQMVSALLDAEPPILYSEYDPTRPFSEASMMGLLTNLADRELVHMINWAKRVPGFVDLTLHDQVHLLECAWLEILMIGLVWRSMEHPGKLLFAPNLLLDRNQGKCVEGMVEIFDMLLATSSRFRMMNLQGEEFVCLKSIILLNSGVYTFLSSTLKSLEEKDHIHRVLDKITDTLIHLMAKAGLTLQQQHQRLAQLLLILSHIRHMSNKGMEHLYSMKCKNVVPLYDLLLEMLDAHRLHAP

Molecular target: hERαCDE WT (Homo sapiens) (UniProt P03372)
Experiment: SEC / SEC-SAXS
Settings: E2, TIF2 peptide, buffer B pH 9.5, SASBDB SASDDU8; recombinant protein; residues 181-552; protein details: His-tag (pMCSG7), removed by TEV

TAGGTACACGTGACCTGCG / CGCAGGTCACTGTGACCTA [ERE-DNA (hERαcomplex, as printed)]
binding result: binds

For at least one entry, the source does not settle the construct or the ends of the probe. At least one verdict was read from the data and is not stated in words by the source.
